Source: the supplement of paper PMC12009310
Where a name gives a salt, the structure may show the parent alone. ± gives the standard deviation of the averaged measurements. The list shows a part of the results. Plates or batches differ in their baseline, so values are only roughly comparable.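 The cells are a mouse kidney inner medullary collecting duct line, silenced either for the ciliary gene Rpgrip1l or with a non-targeting control siRNA.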

system: mIMCD3; assay: robust z score of cell number vs plate controls; higher = more cells (less cytotoxic); conditions: 10 µM; 48 h; siRNA: siRpgrip1l

Compound	robust z score of cell number
CC(=O)NCCc1c[nH]c2ccccc12 [N-Acetyltryptamine]	-8.93 ± 11
C[C@@H]1O[C@@H](O[C@H]2C[C@@H](O)[C@]3(CO)[C@H]4[C@H](O)C[C@]5(C)[C@@H](C6=CC(=O)OC6)CC[C@]5(O)[C@@H]4CC[C@]3(O)C2)[C@H](O)[C@H](O)[C@H]1O [Ouabain]	-7.38 ± 6.2
c1ccc2c(c1)OCC(C1=NCCN1)O2 (stereo not given) [Idazoxan hydrochloride]	-30.2 ± 9.7
O=C(O)/C=C/CO [trans-4-Hydroxycrotonic acid]	-4.34 ± 0.044
CN[C@@H]1C[C@@H](c2ccc(Cl)c(Cl)c2)c2ccccc21 [Indatraline hydrochloride]	-191 ± 210
N[C@@]1(C(=O)O)CC[C@@H](C(=O)O)C1	11.2 ± 7.9
COc1ccc(C(=O)N2CCCC2=O)cc1 [Aniracetam]	1.29 ± 0.85
O=C(CCCN1CCC2(CC1)C(=O)N(Cc1cccc(F)c1)CN2c1ccccc1)c1ccc(F)cc1 [3'-Fluorobenzylspiperone maleate]	-56.2 ± 18
CCCCCCC[n+]1ccc(-c2cc[n+](CCCCCCC)cc2)cc1 [DHBP dibromide]	-47.7 ± 15
CC(C)C[C@@H](N)C1(c2ccc(Cl)cc2)CCC1	-9.65 ± 6.2
Cc1onc(O)c1CC(N)C(=O)O (racemic)	8 ± 4.7
CCN1C[C@]2(COC(=O)c3ccccc3N3C(=O)C[C@H](C)C3=O)CC[C@H](OC)[C@@]34[C@@H]5C[C@H]6[C@H](OC)[C@@H]5[C@](O)(C[C@@H]6OC)[C@](O)([C@@H](OC)[C@H]23)[C@@H]14 [Methyllycaconitine citrate]	-11.7 ± 12
NCc1cc(O)no1 [Muscimol]	1.35 ± 4.6
Cc1nnc2ccc(-c3cccc(C(F)(F)F)c3)nn12	-3.81 ± 4.4
CCCN(CCC)C1CCc2cccc(O)c2C1 (stereo not given) [8-Hydroxy-DPAT hydrobromide]	-3.29 ± 2.3
Cc1[nH]c2ccc(Cl)cc2c1C1=CCNCC1	-9.17 ± 4.5
O=c1[nH]c2ccccc2n1C1CCN(CCCC(c2ccc(F)cc2)c2ccc(F)cc2)CC1 [Pimozide]	-30.78 ± 0.28
C[C@@H]1CC[C@H]2[C@@H](C)C(=O)O[C@@H]3O[C@@]4(C)CC[C@@H]1[C@]32OO4 [Artemisinin]	-11.5 ± 4.4
c1ccc2c(c1)[I+]c1ccccc1-2 [Diphenyleneiodonium chloride]	-110 ± 78
CC(C)NCC(O)c1ccc(N)c(C#N)c1 (stereo not given) [Cimaterol]	-17.6 ± 22

Compound	robust z score of cell number
S=C=Nc1cccc(C2(N3CCCCC3)CCCCC2)c1 [Metaphit]	-8.58 ± 10
COc1ccc(CNC(=O)/C=C/c2ccc3[nH]cc(CCN(C)C)c3c2)cc1	-0.229 ± 1.8
Cc1cc(C)cc(C(=O)OC2C[C@H]3CC[C@@H](C2)N3C)c1 (stereo not given in full) [Tropanyl-3,5-dimethylbenzoate]	-99.2 ± 72
COc1ccc2[nH]cc(C3=CCNCC3)c2c1	-7.59 ± 1.1
N[C@H](C(=O)O)c1cc(O)no1 [Ibotenic acid]	1.01 ± 3.4
c1ccc(C2CC2)c(OCC2=NCCN2)c1 [Cirazoline hydrochloride]	-3.99 ± 2
COc1ccc(-n2nc(C(F)(F)F)cc2-c2ccc(Cl)cc2)cc1	-192 ± 220
CC(CN)CC(=O)O (stereo not given) [3-Methyl-GABA]	7.73 ± 12
CN1[C@@H]2CC[C@H]1C[C@@H](OC(=O)c1cc(Cl)cc(Cl)c1)C2	-85.8 ± 59
O=Cc1cn(Cc2ccc(Cl)cc2)c2ccccc12 [Oncrasin 1]	-20.6 ± 23
C[C@H](N)Cc1cnc[nH]1 [(S)-(+)-a-Methylhistamine dihydrobromide]	4.17 ± 4.5
CN1C[C@H](C(=O)N[C@]2(C)O[C@@]3(O)[C@@H]4CCCN4C(=O)[C@H](Cc4ccccc4)N3C2=O)C[C@@H]2c3cccc4[nH]cc(c34)C[C@H]21 [Dihydroergotamine mesylate]	-13.3 ± 3.8
O=C(CCCN1CCC2(CC1)C(=O)NCN2c1ccccc1)c1ccc(F)cc1 [Spiperone hydrochloride]	-20.1 ± 0.5
C[C@@]12N[C@@H](Cc3ccccc31)c1ccccc12 [(-)-MK 801 maleate]	-2.32 ± 0.76
CC(C)(C)NCC(O)COc1cccc2[nH]c(C#N)cc12 (stereo not given) [Cyanopindolol hemifumarate]	-50.2 ± 66
C[N+]1(C)CCc2cc3c(cc2[C@H]1[C@@H]1OC(=O)c2c1ccc1c2OCO1)OCO3 [(-)-Bicuculline methochloride]	0.445 ± 3.8
N=C(NCc1ccc(Cl)cc1)SCCCc1c[nH]cn1 [Clobenpropit dihydrobromide]	-7.72 ± 1.3
Ic1cncc(OC[C@@H]2CCN2)c1	4.12 ± 8.2
Cn1cc(C(=O)C(=O)N[C@H]2CN3CCC2CC3)c2ccccc21	-13.8 ± 2.7
Oc1ccc2c3c1O[C@H]1c4[nH]c5c(c4C[C@@]4(O)[C@@H](C2)N(CC2CC2)CC[C@]314)C[C@@]1(O)[C@H]2Cc3ccc(O)c4c3[C@@]1(CCN2CC1CC1)[C@H]5O4 [nor-Binaltorphimine dihydrochloride]	12.2 ± 16

An excerpt from above in order of count of non-hydrogen atoms, smallest number first:
Compound	robust z score of cell number
O=C(O)/C=C/CO [trans-4-Hydroxycrotonic acid]	-4.34 ± 0.044
O=Cc1cn(Cc2ccc(Cl)cc2)c2ccccc12 [Oncrasin 1]	-20.6 ± 23
CN1C[C@H](C(=O)N[C@]2(C)O[C@@]3(O)[C@@H]4CCCN4C(=O)[C@H](Cc4ccccc4)N3C2=O)C[C@@H]2c3cccc4[nH]cc(c34)C[C@H]21 [Dihydroergotamine mesylate]	-13.3 ± 3.8
